In paper PMC10663622 (2023):
For part of these data: Strings that start with PEPTIDE1 are HELM notation: dots part the residues, brackets hold end groups and non-standard residues.

How the values were obtained:
[1] = general procedure: Fmoc solid-phase peptide synthesis; Fmoc-Ala-Wang Resin; DIC/HOBt; conditions: whole synthesis, scale 0.25 mmol
peptide synthesis = conditions: oxidative folding step

Substance	isolated mass [1] [µmol]	isolated yield [1] [%]	oxidative folding yield (peptide synthesis) [%]
H-Phe-Val-Asn-Gln-His-Leu-Sec(SePys)-Gly-Ser-His-Leu-Val-Glu-Ala-Leu-Tyr-Leu-Val-Cys(SPys)-Gly-Glu-Arg-Gly-Phe-Phe-Tyr-Thr-Pro-Lys-Ala-OH	2.30	10	–
PEPTIDE1{G.I.V.E.Q.C.[Sec].A.S.V.C.S.L.Y.Q.L.E.N.Y.C.N}|PEPTIDE2{F.V.N.Q.H.L.[Sec].G.S.H.L.V.E.A.L.Y.L.V.C.G.E.R.G.F.F.Y.T.P.K.A}$PEPTIDE1,PEPTIDE1,6:R3-11:R3|PEPTIDE1,PEPTIDE2,7:R3-7:R3|PEPTIDE1,PEPTIDE2,20:R3-19:R3$$$V2.0	–	–	72 ± 4
